Our source for the binding values is article PMC11449332.

Changes are numbered by the printed parent chain. No constants are given. Whether binding was seen depends on the method and setting. In cells and extracts the contact can be indirect. Some entries that bind do so weakly or less than the wild type. Where a sequence is shown, tags or fusion partners need not be part of it.

Test [1] addresses T1, Flag-tagged PNLDC1 (mouse, wild type) (mouse) (UniProt B2RXZ1).
T1 sequence: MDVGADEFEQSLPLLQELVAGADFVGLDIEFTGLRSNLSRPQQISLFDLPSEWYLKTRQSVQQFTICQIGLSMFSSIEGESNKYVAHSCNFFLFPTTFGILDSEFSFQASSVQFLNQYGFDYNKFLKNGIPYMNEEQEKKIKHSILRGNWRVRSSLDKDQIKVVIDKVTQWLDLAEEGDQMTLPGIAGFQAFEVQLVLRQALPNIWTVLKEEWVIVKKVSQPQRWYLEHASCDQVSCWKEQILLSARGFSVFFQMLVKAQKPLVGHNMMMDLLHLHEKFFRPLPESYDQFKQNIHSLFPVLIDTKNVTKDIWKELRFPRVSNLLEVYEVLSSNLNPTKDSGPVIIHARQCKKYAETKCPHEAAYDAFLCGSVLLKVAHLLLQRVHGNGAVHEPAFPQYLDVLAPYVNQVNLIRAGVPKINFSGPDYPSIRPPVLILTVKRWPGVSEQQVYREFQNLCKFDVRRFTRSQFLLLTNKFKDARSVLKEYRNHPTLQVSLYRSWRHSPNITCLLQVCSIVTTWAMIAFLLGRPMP
The test can be described thus: co-IP; Flag-PNLDC1 (wild type or E30A) and TDRKH-GFP co-expressed in HEK293T; lysed in trimming buffer (20 mM HEPES-KOH pH 7.0, 100 mM NaCl, 1.5 mM MgCl2, 0.1 mM EDTA, 0.1 mM DTT) with 1% Triton X-100; anti-FLAG M2 agarose beads; Western blot with anti-FLAG and anti-GFP.

Test [2] concerns the target T2, Flag-tagged PNLDC1 E30A (mouse, catalytically inactive) (mouse) (UniProt B2RXZ1).
T2 sequence: T1 sequence with E30A
The test is described as above.

B1: GFP-tagged TDRKH (mouse) (protein, UniProt Q80VL1 1-560)
chain: MSTERTSWTNLSTIQKIALGLGIPASATVAYILYRRYRESREERLTFVGEDDIEIEMRVPQEAVKLIIGRQGANIKQLRKQTGARIDVDTEDVGDERVLLISGFPVQVCKAKAAIHQILTENTPVFEQLSVPQRSVGRIIGRGGETIRSICKASGAKITCDKESEGTLLLSRLIKISGTQKEVAAAKHLILEKVSEDEELRKRIAHSAETRVPRKQPISVRREEVTEPGGAGEAALWKNTNSSMGPATPLEVPLRKGGGDMVVVGPKEGSWEKPNDDSFQNSGAQSSPETSMFEIPSPDFSFHADEYLEVYVSASEHPNHFWIQIIGSRSLQLDKLVSEMTQHYENSLPEDLTVHVGDIVAAPLSTNGSWYRARVLGTLENGNLDLYFVDFGDNGDCALKDLRALRSDFLSLPFQAIECSLARIAPTGEEWEEEALDEFDRLTHCADWKPLVAKISSYVQTGISTWPKIYLYDTSDEKKLDIGLELVRKGYAVELPEDMEENRTVPNMLKDMATETDDSLASILTETKKSPEEMPHTLSCLSLSEAASMSGDDNLEDDLF
B1: the binding result in test [1] and in test [2] was “binds” each time.
